Taken from: PubChem BioAssay AID504804 (Drosophila RNAi Screening Center, 2011)
Aim: 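Fly genes whose loss lessens doxorubicin-driven cell death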 (primary screen). Cell system: Drosophila Kc cells. Knock-down reagent: long dsRNA against Drosophila genes, 0.5 µg dsRNA per well. Timing: 96 h (48 h knock-down, then 48 h drug). Treatment: doxorubicin 5 µg/ml for 48 h, added 48 h after dsRNA. Detection: 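Luminescent ATP counts per replicate, not normalised, reflecting viable cells after 48 h dsRNA knock-down followed by 48 h of 5 µg/ml doxorubicin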. Scale: raw ATP luminescence: higher = more viable cells, protection from doxorubicin. Rule for the call: 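z-score of 2 or more over plate mean in both duplicates, retained only when retests and separate dsRNAs confirm the protection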.
The screen tested about 19,000 reagents; below is a random part of those that have a named target and a result. In the full data, 47 (0.25%) are marked active. 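Signals are raw, not normalised; exact z-scores behind calls not deposited; actives needed confirmation, so some wells reaching 2 SD are inactive.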 Entries without a mark were called inactive. Names joined by + are all predicted targets of the reagent. No sequences are given here.

The first 10 records as a preview:
gene knocked down	dsRNA	raw ATP luminescence, replicate 1	raw ATP luminescence, replicate 2
Reph (Regulator of eph expression)	DRSC00634	1.12e5	84247
CG12923	DRSC06237	37277	86563
CG33459	DRSC05615	1.54e5	98563
sigmar (salivary glands marred)	DRSC04449	82677	61943
CG44838	DRSC10330	15157	14393
CG44838	DRSC10371	40343	37560
vtd (verthandi)	DRSC20839	2.98e5	2.78e5
CR18275 + CR18166 + CG32817	DRSC17249	2.31e5	2.14e5
CG13659	DRSC14660	57700	68590
Obp19d (Odorant-binding protein 19d)	DRSC20569	3.56e5	4.63e5

Results, from the start:
gene knocked down	dsRNA	raw ATP luminescence, replicate 1	raw ATP luminescence, replicate 2
Reph (Regulator of eph expression)	DRSC00634	1.12e5	84247
CG12923	DRSC06237	37277	86563
CG33459	DRSC05615	1.54e5	98563
sigmar (salivary glands marred)	DRSC04449	82677	61943
CG44838	DRSC10330	15157	14393
CG44838	DRSC10371	40343	37560
vtd (verthandi)	DRSC20839	2.98e5	2.78e5
CR18275 + CR18166 + CG32817	DRSC17249	2.31e5	2.14e5
CG13659	DRSC14660	57700	68590
Obp19d (Odorant-binding protein 19d)	DRSC20569	3.56e5	4.63e5
CG5973	DRSC02918	1.03e5	66713
CG13252	DRSC11700	68740	78603
PCID2 (PCI domain-containing protein 2)	DRSC10822	39183	40757
Tcs6 + PIG-P	DRSC13742	1.71e5	2.02e5
Tcs6 + PIG-P	DRSC14893	83010	80230
Obp69a (Odorant-binding protein 69a)	DRSC11247	59967	67350
Alms1a (Alstrom syndrome 1a)	DRSC18558	36040	38310
CG15414	DRSC00429	22380	23793
CG34324	DRSC19502	3.65e5	3.10e5
Tim9a	DRSC19753	3.30e5	3.33e5
DCTN5-p25 (Dynactin 5, p25 subunit)	DRSC03525	67800	64920
CG6962	DRSC16153	48247	24540
CG7907	DRSC16339	32060	31420
E23 (Early gene at 23)	DRSC00425	14957	10980
E23 (Early gene at 23)	DRSC00593	36170	34040
cort (cortex)	DRSC02148	1.60e5	1.74e5
Alg1 (ALG1, chitobiosyldiphosphodolichol beta-mannosyltransferase)	DRSC15297	53770	39860
exex (extra-extra)	DRSC10972	72247	86993
Tom7 (Translocase of outer membrane 7)	DRSC05135	97443	90980
Tom7 (Translocase of outer membrane 7)	DRSC07113	49717	77630
CG16800	DRSC02518	64773	73143
CG6766	DRSC02991	72813	67833
vis + achi	DRSC07277	48783	35993
CG6083	DRSC10580	58703	64640
CG8891	DRSC03120	20563	19523
CG34304 (retired record)	DRSC12810	70687	53340
sif (still life)	DRSC08759	1.52e5	1.54e5
sif (still life)	DRSC11395	75177	82960
CG15370	DRSC18042	2.93e5	3.03e5
kon (kon-tiki)	DRSC02033	72803	60553
CG2656	DRSC12584	62157	25063
Art3 (Arginine methyltransferase 3)	DRSC16065	73733	31313
CG8046	DRSC07059	85187	80137
Apoltp (Apolipoprotein lipid transfer particle)	DRSC02508	1.15e5	69147
CG8564	DRSC10997	34323	34273
CG31224	DRSC15272	1.39e5	1.67e5
CG31224	DRSC16290	55020	50953
ste24a (prenyl protease type I)	DRSC07314	77717	90930
TRAM	DRSC18178	85330	61100
TRAM	DRSC18651	70550	61440
Caper	DRSC02137	65910	42563
laza (lazaro)	DRSC11661	31523	23153
CG6329	DRSC06976	49390	44617
CG6277	DRSC16008	57380	35730
alpha-Est7 (alpha-Esterase-7)	DRSC12619	1.37e5	1.94e5
Obp44a (Odorant-binding protein 44a)	DRSC06838	55653	77963
CG33998	DRSC05747	2.01e5	1.66e5
bdg (bedraggled)	DRSC07136	48067	71593
fmt (fiery mountain)	DRSC09717	38030	37550
CG4911	DRSC10456	58633	35353
GckIII (Germinal centre kinase III)	DRSC15729	46500	57550
CG17075	DRSC00483	1.00e5	70120
twy (twitchy)	DRSC10562	1.10e5	66117
CG13000	DRSC19519	2.72e5	2.21e5
eIF3g2 (eukaryotic translation initiation factor 3 subunit g2)	DRSC14275	73280	79160
nompC (no mechanoreceptor potential C)	DRSC03581	30307	34400
CG14630	DRSC18166	66440	75970
CG14630	DRSC18653	56170	59500
Grik	DRSC15846	31853	41040
Grik	DRSC15847	56990	76980
Syb (Synaptobrevin)	DRSC07559	47230	45213
unk (unkempt)	DRSC17093	36413	34163
CG30083	DRSC05572	1.16e5	1.39e5
Chd3	DRSC11114	83953	51080
levy	DRSC04289	44663	59050
CG14625	DRSC18633	56100	45020
I-2 (Inhibitor-2)	DRSC11194	79050	74657
Nop17l (Nop17 like)	DRSC06556	60857	58890
Opbp (Optix-binding protein)	DRSC04966	43793	43690
CG9691	DRSC18441	3.50e5	3.47e5
pkaap	DRSC01925	65160	74523
sala (spalt-adjacent)	DRSC03605	28913	67880
numb	DRSC03584	90407	56313
ich (ichor)	DRSC12715	73023	53543
ich (ichor)	DRSC14448	68997	79520
